In assay [1] the target is MCL1 (human (endogenous in MDA-MB-231)) (UniProt Q07820). Put plainly: co-IP; control (untreated) MDA-MB-231 cells; 400 µg of RIPA whole cell lysate with 0.5 µg antibody against MCL1 for 2 h, then 40 µL IP matrix (ExactaCruz) overnight at 4 °C; washed with RIPA buffer; Western blot for MCL1, FAK and p130Cas; mock IP with beads alone. A general note: Immunoblotting shows a protein as a band on a membrane.

Protein sequences, listed by entry. Tags and fused reporters are not part of them.
UniProt Q07820: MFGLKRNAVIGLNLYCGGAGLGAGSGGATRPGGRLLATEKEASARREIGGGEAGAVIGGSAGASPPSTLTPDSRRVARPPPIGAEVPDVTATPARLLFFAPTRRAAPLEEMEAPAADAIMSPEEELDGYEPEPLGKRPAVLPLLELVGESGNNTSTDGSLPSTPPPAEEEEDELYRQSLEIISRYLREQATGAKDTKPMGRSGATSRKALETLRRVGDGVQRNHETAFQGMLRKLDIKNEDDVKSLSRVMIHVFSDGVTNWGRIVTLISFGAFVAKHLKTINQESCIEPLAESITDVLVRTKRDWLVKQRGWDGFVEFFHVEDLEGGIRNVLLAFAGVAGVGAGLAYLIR
UniProt Q05397: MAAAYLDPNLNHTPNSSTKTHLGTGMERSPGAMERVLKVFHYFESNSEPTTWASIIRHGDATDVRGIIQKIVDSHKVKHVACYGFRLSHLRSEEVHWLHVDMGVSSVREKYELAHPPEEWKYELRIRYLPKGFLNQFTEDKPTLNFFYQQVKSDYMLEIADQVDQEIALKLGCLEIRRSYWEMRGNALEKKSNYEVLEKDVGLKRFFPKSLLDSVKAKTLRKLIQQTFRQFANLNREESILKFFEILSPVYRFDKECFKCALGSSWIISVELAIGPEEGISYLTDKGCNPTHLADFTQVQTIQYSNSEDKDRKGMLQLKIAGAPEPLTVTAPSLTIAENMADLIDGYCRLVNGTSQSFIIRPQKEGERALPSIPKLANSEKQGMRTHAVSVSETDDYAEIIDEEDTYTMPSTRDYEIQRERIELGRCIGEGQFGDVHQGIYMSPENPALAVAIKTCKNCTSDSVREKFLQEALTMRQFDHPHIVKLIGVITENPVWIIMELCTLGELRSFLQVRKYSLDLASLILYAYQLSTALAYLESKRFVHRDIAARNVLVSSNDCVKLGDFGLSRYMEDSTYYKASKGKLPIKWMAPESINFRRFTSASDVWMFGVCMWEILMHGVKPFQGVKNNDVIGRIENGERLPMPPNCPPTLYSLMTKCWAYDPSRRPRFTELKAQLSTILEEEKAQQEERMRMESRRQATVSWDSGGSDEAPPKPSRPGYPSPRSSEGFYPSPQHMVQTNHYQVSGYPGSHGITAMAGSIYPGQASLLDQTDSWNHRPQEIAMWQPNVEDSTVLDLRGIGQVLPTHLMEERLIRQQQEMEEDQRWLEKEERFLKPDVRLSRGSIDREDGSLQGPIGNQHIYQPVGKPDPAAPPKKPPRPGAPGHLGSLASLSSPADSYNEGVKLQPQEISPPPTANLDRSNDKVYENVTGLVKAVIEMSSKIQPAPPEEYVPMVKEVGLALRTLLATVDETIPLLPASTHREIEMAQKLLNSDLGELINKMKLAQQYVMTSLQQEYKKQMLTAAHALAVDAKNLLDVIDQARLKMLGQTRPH

For assay [2] the target is unchanged. Put plainly: co-IP; MDA-MB-231 cells treated with A-1210477; 400 µg of RIPA whole cell lysate with 0.5 µg antibody against MCL1 for 2 h, then 40 µL IP matrix (ExactaCruz) overnight at 4 °C; washed with RIPA buffer; Western blot for MCL1, FAK and p130Cas.

No constants are given. Whether binding was seen depends on the method and setting. In cells and extracts the contact can be indirect. Some binding calls cover weakened binding; strength is not graded here.

For the molecule “focal adhesion kinase (FAK) (from UniProt Q05397 1-1052)”, the results for the binding result in assay [1] and in assay [2] were “binds” and “no binding (condition: cells treated with A-1210477)”, respectively.

B1: p130Cas (protein, UniProt P56945 1-870)
chain: MNHLNVLAKALYDNVAESPDELSFRKGDIMTVLEQDTQGLDGWWLCSLHGRQGIVPGNRLKILVGMYDKKPAGPGPGPPATPAQPQPGLHAPAPPASQYTPMLPNTYQPQPDSVYLVPTPSKAQQGLYQVPGPSPQFQSPPAKQTSTFSKQTPHHPFPSPATDLYQVPPGPGGPAQDIYQVPPSAGMGHDIYQVPPSMDTRSWEGTKPPAKVVVPTRVGQGYVYEAAQPEQDEYDIPRHLLAPGPQDIYDVPPVRGLLPSQYGQEVYDTPPMAVKGPNGRDPLLEVYDVPPSVEKGLPPSNHHAVYDVPPSVSKDVPDGPLLREETYDVPPAFAKAKPFDPARTPLVLAAPPPDSPPAEDVYDVPPPAPDLYDVPPGLRRPGPGTLYDVPRERVLPPEVADGGVVDSGVYAVPPPAEREAPAEGKRLSASSTGSTRSSQSASSLEVAGPGREPLELEVAVEALARLQQGVSATVAHLLDLAGSAGATGSWRSPSEPQEPLVQDLQAAVAAVQSAVHELLEFARSAVGNAAHTSDRALHAKLSRQLQKMEDVHQTLVAHGQALDAGRGGSGATLEDLDRLVACSRAVPEDAKQLASFLHGNASLLFRRTKATAPGPEGGGTLHPNPTDKTSSIQSRPLPSPPKFTSQDSPDGQYENSEGGWMEDYDYVHLQGKEEFEKTQKELLEKGSITRQGKSQLELQQLKQFERLEQEVSRPIDHDLANWTPAQPLAPGRTGGLGPSDRQLLLFYLEQCEANLTTLTNAVDAFFTAVATNQPPKIFVAHSKFVILSAHKLVFIGDTLSRQAKAADVRSQVTHYSNLLCDLLRGIVATTKAAALQYPSPSAAQDMVERVKELGHSTQQFRRVLGQLAAA
With B1, the values for the binding entry in assay [1] and in assay [2] were “binds” and “no binding (condition: cells treated with A-1210477)”, respectively.
